Data: US20260266848A1, “COMPOSITIONS AND METHODS FOR DIAGNOSING AND TREATING DYSTONIA” (Duke University, priority 2023, published 2026)

Tests used:
DYT-TOR1A MEF EVs = assay: Quantitative LC-MS/MS proteomics of EVs from drug-treated DYT-TOR1A MEF cultures (ritonavir, salubrinal); format: cell-based, mouse; details: for RTV Corrective Direction: Ritonavir; for RTV Corrective Direction / Sal Corrective Direction: was treatment in MEF's in the direction of WT-like?; for Sal Corrective Direction: Salubrinal
[1] = system: DYT1 patient plasma derived EVs; assay: Plasma-derived EV proteomics (ExoQuick ULTRA, DIA LC/MS/MS), DYT1 vs Healthy Controls; set-up: species or system human; details: for Mean DYT1 / Mean HC: protein abundance; for Mean DYT1: DYT1 patients; for Mean HC: healthy controls (HC); for Log2_FC: protein level, human patient derived EVs by genotype
Method in brief: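 Quantitative LC/MS/MS in data-independent acquisition on an Orbitrap Astral (4 m/z windows over m/z 380-980, HCD 27%), 500 ng of each EV sample. EVs were isolated from plasma by ExoQuick ULTRA, separated by EvoSep SPD30 gradient at 50 C.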

B1: Zyx (protein, UniProt Q62523 2-564, looked up)
Zyxin: AAPRPPPAISVSVSAPAFYAPQKKFAPVVAPKPKVNPFRPGDSEPPVAAGAQRAQMGRVGEIPPPPPEDFPLPPPPLIGEGDDSEGALGGAFPPPPPPMIEEPFPPAPLEEDIFPSPPPPLEEEGGPEAPTQLPPQPREKVCSIDLEIDSLSSLLDDMTKNDPFKARVSSGYVPPPVATPFVPKPSTKPAPGGTAPLPPWKTPSSSQPPPQPQAKPQVQLHVQPQAKPHVQPQPVSSANTQPRGPLSQAPTPAPKFAPVAPKFTPVVSKFSPGAPSGPGPQPNQKMVPPDAPSSVSTGSPQPPSFTYAQQKEKPLVQEKQHPQPPPAQNQNQVRSPGGPGPLTLKEVEELEQLTQQLMQDMEHPQRQSVAVNESCGKCNQPLARAQPAVRALGQLFHITCFTCHQCQQQLQGQQFYSLEGAPYCEGCYTDTLEKCNTCGQPITDRMLRATGKAYHPQCFTCVVCACPLEGTSFIVDQANQPHCVPDYHKQYAPRCSVCSEPIMPEPGRDETVRVVALDKNFHMKCYKCEDCGKPLSIEADDNGCFPLDGHVLCRKCHSARAQT
DYT-TOR1A MEF EVs
  RTV Corrective Direction: Yes
  Sal Corrective Direction: Yes

B2: DDOST (protein, UniProt P39656 43-456, looked up)
Dolichyl-diphosphooligosacchar …: SGPRTLVLLDNLNVRETHSLFFRSLKDRGFELTFKTADDPSLSLIKYGEFLYDNLIIFSPSVEDFGGNINVETISAFIDGGGSVLVAASSDIGDPLRELGSECGIEFDEEKTAVIDHHNYDISDLGQHTLIVADTENLLKAPTIVGKSSLNPILFRGVGMVADPDNPLVLDILTGSSTSYSFFPDKPITQYPHAVGKNTLLIAGLQARNNARVIFSGSLDFFSDSFFNSAVQKAAPGSQRYSQTGNYELAVALSRWVFKEEGVLRVGPVSHHRVGETAPPNAYTVTDLVEYSIVIQQLSNGKWVPFDGDDIQLEFVRIDPFVRTFLKKKGGKYSVQFKLPDVYGVFQFKVDYNRLGYTHLYSSTQVSVRPLQHTQYERFIPSAYPYYASAFSMMLGLFIFSIVFLHMKEKEKSD
[1]
  Mean DYT1: 3.994
  Mean HC: 4.66

B3: MARS1 (protein, UniProt P56192 1-900, looked up)
Methionine--tRNA ligase, …: MRLFVSDGVPGCLPVLAAAGRARGRAEVLISTVGPEDCVVPFLTRPKVPVLQLDSGNYLFSTSAICRYFFLLSGWEQDDLTNQWLEWEATELQPALSAALYYLVVQGKKGEDVLGSVRRALTHIDHSLSRQNCPFLAGETESLADIVLWGALYPLLQDPAYLPEELSALHSWFQTLSTQEPCQRAAETVLKQQGVLALRPYLQKQPQPSPAEGRAVTNEPEEEELATLSEEEIAMAVTAWEKGLESLPPLRPQQNPVLPVAGERNVLITSALPYVNNVPHLGNIIGCVLSADVFARYSRLRQWNTLYLCGTDEYGTATETKALEEGLTPQEICDKYHIIHADIYRWFNISFDIFGRTTTPQQTKITQDIFQQLLKRGFVLQDTVEQLRCEHCARFLADRFVEGVCPFCGYEEARGDQCDKCGKLINAVELKKPQCKVCRSCPVVQSSQHLFLDLPKLEKRLEEWLGRTLPGSDWTPNAQFITRSWLRDGLKPRCITRDLKWGTPVPLEGFEDKVFYVWFDATIGYLSITANYTDQWERWWKNPEQVDLYQFMAKDNVPFHSLVFPCSALGAEDNYTLVSHLIATEYLNYEDGKFSKSRGVGVFGDMAQDTGIPADIWRFYLLYIRPEGQDSAFSWTDLLLKNNSELLNNLGNFINRAGMFVSKFFGGYVPEMVLTPDDQRLLAHVTLELQHYHQLLEKVRIRDALRSILTISRHGNQYIQVNEPWKRIKGSEADRQRAGTVTGLAVNIAALLSVMLQPYMPTVSATIQAQLQLPPPACSILLTNFLCTLPAGHQIGTVSPLFQKLENDQIESLRQRFGGGQAKTSPKPAVVETVTTAKPQQIQALMDEVTKQGNIVRELKAQKADKNEVAAEVAKLLDLKKQLAVAEGKPPEAPKGKKKK
[1]; Hs. Plasma EVs (DYT1/WT)
  Directionality: DOWN
  Log2_FC: -1.187
[1]; directionality of protein change, human plasma derived EVs, DYT1 vs WT(HC)
  Hs. Plasma EVs (DYT1/WT): DOWN
[1]
  Mean DYT1: 4.049
  Mean HC: 5.24

B4: Slc2a1 (protein, UniProt P17809 1-492, looked up)
Solute carrier family 2, …: MDPSSKKVTGRLMLAVGGAVLGSLQFGYNTGVINAPQKVIEEFYNQTWNHRYGEPIPSTTLTTLWSLSVAIFSVGGMIGSFSVGLFVNRFGRRNSMLMMNLLAFVAAVLMGFSKLGKSFEMLILGRFIIGVYCGLTTGFVPMYVGEVSPTALRGALGTLHQLGIVVGILIAQVFGLDSIMGNADLWPLLLSVIFIPALLQCILLPFCPESPRFLLINRNEENRAKSVLKKLRGTADVTRDLQEMKEEGRQMMREKKVTILELFRSPAYRQPILIAVVLQLSQQLSGINAVFYYSTSIFEKAGVQQPVYATIGSGIVNTAFTVVSLFVVERAGRRTLHLIGLAGMAGCAVLMTIALALLERLPWMSYLSIVAIFGFVAFFEVGPGPIPWFIVAELFSQGPRPAAIAVAGFSNWTSNFIVGMCFQYVEQLCGPYVFIIFTVLLVLFFIFTYFKVPETKGRTFDEIASGFRQGGASQSDKTPEELFHPLGADSQV
DYT-TOR1A MEF EVs; Directionality of protein change in MEFs EV dataset in DYT1 derived MEFs treated with salubrinal
  DYT1/DYT1 + Sal: DOWN
DYT-TOR1A MEF EVs
  RTV Corrective Direction: Yes
  Sal Corrective Direction: No

B5: Hnrnpc (protein, UniProt Q9Z204 2-313, looked up)
Heterogeneous nuclear …: ASNVTNKTDPRSMNSRVFIGNLNTLVVKKSDVEAIFSKYGKIVGCSVHKGFAFVQYVNERNARAAVAGEDGRMIAGQVLDINLAAEPKVNRGKAGVKRSAAEMYGSVPEHPSPSPLLSSSFDLDYDFQRDYYDRMYSYPARVPPPPPIARAVVPSKRQRVSGNTSRRGKSGFNSKSGQRGSSSKSGKLKGDDLQAIKKELTQIKQKVDSLLESLEKIEKEQSKQADLSFSSPVEMKNEKSEEEQSSASVKKDETNVKMESEAGADDSAEEGDLLDDDDNEDRGDDQLELKDDEKEPEEGEDDRDSANGEDDS
DYT-TOR1A MEF EVs
  RTV Corrective Direction: Yes
  Sal Corrective Direction: Yes

B6: WDR26 (protein, UniProt Q9H7D7 1-661, looked up)
WD repeat-containing protein …: MQANGAGGGGGGGGGGGGGGGGGGGQGQTPELACLSAQNGESSPSSSSSAGDLAHANGLLPSAPSAASNNSNSLNVNNGVPGGAAAASSATVAAASATTAASSSLATPELGSSLKKKKRLSQSDEDVIRLIGQHLNGLGLNQTVDLLMQESGCRLEHPSATKFRNHVMEGDWDKAENDLNELKPLVHSPHAIVVRGALEISQTLLGIIVRMKFLLLQQKYLEYLEDGKVLEALQVLRCELTPLKYNTERIHVLSGYLMCSHAEDLRAKAEWEGKGTASRSKLLDKLQTYLPPSVMLPPRRLQTLLRQAVELQRDRCLYHNTKLDNNLDSVSLLIDHVCSRRQFPCYTQQILTEHCNEVWFCKFSNDGTKLATGSKDTTVIIWQVDPDTHLLKLLKTLEGHAYGVSYIAWSPDDNYLVACGPDDCSELWLWNVQTGELRTKMSQSHEDSLTSVAWNPDGKRFVTGGQRGQFYQCDLDGNLLDSWEGVRVQCLWCLSDGKTVLASDTHQRIRGYNFEDLTDRNIVQEDHPIMSFTISKNGRLALLNVATQGVHLWDLQDRVLVRKYQGVTQGFYTIHSCFGGHNEDFIASGSEDHKVYIWHKRSELPIAELTGHTRTVNCVSWNPQIPSMMASASDDGTVRIWGPAPFIDHQNIEEECSSMDS
[1]; Hs. Plasma EVs (DYT1/WT)
  Log2_FC: 0.6824
[1]
  Mean DYT1: 5.387
  Mean HC: 4.70

B7: NEK9 (protein, UniProt Q8TD19 2-979, looked up)
Serine/threonine-protein …: SVLGEYERHCDSINSDFGSESGGCGDSSPGPSASQGPRAGGGAAEQEELHYIPIRVLGRGAFGEATLYRRTEDDSLVVWKEVDLTRLSEKERRDALNEIVILALLQHDNIIAYYNHFMDNTTLLIELEYCNGGNLYDKILRQKDKLFEEEMVVWYLFQIVSAVSCIHKAGILHRDIKTLNIFLTKANLIKLGDYGLAKKLNSEYSMAETLVGTPYYMSPELCQGVKYNFKSDIWAVGCVIFELLTLKRTFDATNPLNLCVKIVQGIRAMEVDSSQYSLELIQMVHSCLDQDPEQRPTADELLDRPLLRKRRREMEEKVTLLNAPTKRPRSSTVTEAPIAVVTSRTSEVYVWGGGKSTPQKLDVIKSGCSARQVCAGNTHFAVVTVEKELYTWVNMQGGTKLHGQLGHGDKASYRQPKHVEKLQGKAIRQVSCGDDFTVCVTDEGQLYAFGSDYYGCMGVDKVAGPEVLEPMQLNFFLSNPVEQVSCGDNHVVVLTRNKEVYSWGCGEYGRLGLDSEEDYYTPQKVDVPKALIIVAVQCGCDGTFLLTQSGKVLACGLNEFNKLGLNQCMSGIINHEAYHEVPYTTSFTLAKQLSFYKIRTIAPGKTHTAAIDERGRLLTFGCNKCGQLGVGNYKKRLGINLLGGPLGGKQVIRVSCGDEFTIAATDDNHIFAWGNGGNGRLAMTPTERPHGSDICTSWPRPIFGSLHHVPDLSCRGWHTILIVEKVLNSKTIRSNSSGLSIGTVFQSSSPGGGGGGGGGEEEDSQQESETPDPSGGFRGTMEADRGMEGLISPTEAMGNSNGASSSCPGWLRKELENAEFIPMPDSPSPLSAAFSESEKDTLPYEELQGLKVASEAPLEHKPQVEASSPRLNPAVTCAGKGTPLTPPACACSSLQVEVERLQGLVLKCLAEQQKLQQENLQIFTQLQKLNKKLEGGQQVGMHSKGTQTAKEEMEMDPKPDLDSDSWCLLGTDSCRPSL
[1]
  Mean DYT1: 11.764
  Mean HC: 12.35

B8: C16orf86 (protein, UniProt Q6ZW13 1-317, looked up)
Uncharacterized protein …: MASAGAERRPGVQEATVVGQGQLTEEPGSAQTSECPVAGDQFLVPAHEARGTQSEDQRPAGAASESELQEEGPKLGEERPKPHAGALEERGPRPVVSIVRPRHGPKRKPVKSLSLPGLRAHLKAEAELPPKLPLQEEEPEDSQSEPSPSAKQHKKAKKRKSLGAPVLHAVASMVSAPLETLRLERKAQRLRPLYQYVNYCNPELNQAGKGDGEAEVEAEAELAPVPEEGGVEQLQALLPLAGELGPGLALPCPSPLVTPTHALAPLGEEAGEEPGGLPSLGVSDHKAEVDKSTQVDIDKMLSVCTAPLVPPLSPQYK
[1]
  Mean DYT1: 10.022
  Mean HC: 8.57

B9: SLPI (protein, UniProt P03973 26-132, looked up)
Antileukoproteinase: SGKSFKAGVCPPKKSAQCLRYKKPECQSDWQCPGKKRCCPDTCGIKCLDPVDTPNPTRRKPGKCPVTYGQCLMLNPPNFCEMDGQCKRDLKCCMGMCGKSCVSPVKA
[1]
  Mean DYT1: 5.326
  Mean HC: 6.42
